Source: patent US20250388535A1, “SULFONATED AND SULFATED ARYL-ALKYL COMPOUNDS USEFUL AS SURFACTANTS” (SPECIALTY OPERATIONS FRANCE, priority 2022, published 2025)

Tested on: municipal activated sludge
Experiment: Biodegradability assessment using the 301 F OECD protocol (standard protocol)
Conditions: for % biodeg (28 d) (Standard protocol): 28 days, 20±2° C., closed BOD flask, without emulsion; for Lag phase: period preceding the beginning of mineralization of the test substance, protocol not given

SMILES	% biodeg (28 d) (Standard protocol)	Lag phase
CCCCCCCCCCCCCCC(C(O)c1ccccc1)S(=O)(=O)[O-].[Na+] (stereo not shown) [PAS-C16]	45%	4 days
CCCCCCCCCCCCCCC(C(=O)c1ccccc1)S(=O)(=O)[O-].[Na+] (stereo not shown) [PAKS-C16, reference compound]	49%	10 days
